Amino acid sequences for entries named in this document (tags omitted). A change or cut given only in a name is not applied to a line headed by its entry.
UniProt P20594: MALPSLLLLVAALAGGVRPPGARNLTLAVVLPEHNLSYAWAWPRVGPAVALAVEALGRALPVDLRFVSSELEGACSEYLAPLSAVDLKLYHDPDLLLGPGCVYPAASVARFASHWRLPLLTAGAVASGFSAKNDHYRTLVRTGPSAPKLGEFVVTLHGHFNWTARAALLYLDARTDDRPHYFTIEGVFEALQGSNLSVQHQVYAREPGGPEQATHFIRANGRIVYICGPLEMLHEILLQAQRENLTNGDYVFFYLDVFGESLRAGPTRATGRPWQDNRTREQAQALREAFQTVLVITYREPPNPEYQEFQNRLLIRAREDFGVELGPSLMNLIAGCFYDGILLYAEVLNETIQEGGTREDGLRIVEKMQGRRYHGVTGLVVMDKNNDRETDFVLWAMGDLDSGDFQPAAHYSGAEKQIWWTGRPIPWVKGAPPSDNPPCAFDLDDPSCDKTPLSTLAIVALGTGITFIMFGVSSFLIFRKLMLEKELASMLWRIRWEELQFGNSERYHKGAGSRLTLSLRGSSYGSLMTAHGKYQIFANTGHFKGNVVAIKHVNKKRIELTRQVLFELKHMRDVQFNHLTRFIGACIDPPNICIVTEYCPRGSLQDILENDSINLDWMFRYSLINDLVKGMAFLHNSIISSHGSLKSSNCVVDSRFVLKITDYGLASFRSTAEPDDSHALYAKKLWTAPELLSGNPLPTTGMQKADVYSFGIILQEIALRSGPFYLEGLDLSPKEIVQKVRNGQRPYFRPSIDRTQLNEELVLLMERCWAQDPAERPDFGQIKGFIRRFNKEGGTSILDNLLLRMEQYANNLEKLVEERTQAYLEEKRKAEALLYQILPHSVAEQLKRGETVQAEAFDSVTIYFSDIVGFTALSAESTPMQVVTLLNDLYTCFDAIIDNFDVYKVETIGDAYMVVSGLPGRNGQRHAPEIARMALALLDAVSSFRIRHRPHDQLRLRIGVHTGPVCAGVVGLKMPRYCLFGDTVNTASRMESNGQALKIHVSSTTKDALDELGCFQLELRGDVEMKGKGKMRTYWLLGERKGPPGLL

Hit rate of the full screen: of about 1,400 compounds, about 940 (67%) were called active. So high a share suggests a set chosen from earlier hits. This list was built around the results that the source calls inconclusive (neither active nor inactive); the mix of calls is not that of the screen. Calls follow the shape of the full dose curve. Potencies of inconclusive entries are doubtful fits and often do not repeat.
Each molecule was assayed against Atrial natriuretic peptide receptor 2 (Homo sapiens) (UniProt P20594) (assay: Natriuretic polypeptide receptor (hNpr2) antagonism - Subtype selectivity assay). Details: HEK293 hNpr2 GloSensor cGMP luminescence, CNP-stimulated; series mostly up to 57.6 µM.
Method in brief: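 Antagonism was scored as loss of the hNppC-evoked cGMP GloSensor luminescence (1 nM agonist, 20 min, ambient temperature) in hNpr2-expressing HEK293 cells. Cells were pretreated with compound for 30 min, 1:3 titration, with a baseline read first.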
For `COc1ccc(C2Cn3nnc(C(=O)NC4CCCCCCC4)c3CO2)cc1` (stereo not given), the Potency was inconclusive: 24.3 µM [inhibitor, partial curve]. `COc1ccc(-c2cnc3[nH]cc(CC(=O)Nc4cccnc4)c3c2)cc1` was tested, and the Potency was “inactive”. For `CC1=NS(=O)(=O)N(C)C=C1C(=O)OCc1nc(-c2cccc(Cl)c2)no1`, the Potency was inconclusive: 27.3 µM [inhibitor, partial curve]. With `CCCN1C(=O)Cc2ccccc2C1C(=O)NCc1cc(OC)ccc1OC` (stereo not given) the Potency was inconclusive: 21.7 µM [inhibitor, partial curve]. With `COC(=O)C1=C(C)N=C2SC=C(CC(=O)NCCC(C)C)N2C1c1ccccc1Cl` (stereo not given) the Potency was inconclusive: 24.3 µM [inhibitor, partial curve]. `CC1=NS(=O)(=O)N(C)C=C1C(=O)OCc1nc(-c2ccccc2F)no1` was tested, and the Potency was inconclusive: 21.7 µM [inhibitor, partial curve]. In the case of `O=C(NCc1ccccc1)c1nc2c(o1)CCN(Cc1ccc(F)cc1)CC2`, the Potency is reported as active: 35.3 µM. In the case of `CC1=C(C(=O)OC(C)C)C(c2ccc(C)cc2C)N2C(CC(=O)N3CCCC3)=CSC2=N1` (stereo not given), the Potency is reported as inconclusive: 27.3 µM [inhibitor, partial curve]. With `CC(C)c1noc(-c2cn(C3CCN(C(=O)c4ccc(F)cc4Cl)C3)nn2)n1` (stereo not given) the Potency was active: 15.3 µM. For `Cc1ccsc1C(=O)N1CCC2(CC1)N=C(c1cccc(Br)c1)NO2`, the Potency was inconclusive: 27.3 µM [inhibitor, partial curve]. In the case of `CC(C)c1noc(-c2cn(C3CCN(C(=O)c4ccc(OC(F)(F)F)cc4)C3)nn2)n1` (stereo not given), the Potency is reported as active: 19.3 µM. In the case of `O=C(CN1C(=O)NC(c2ccc(Cl)cc2)C2=C1COC2=O)Nc1cccc(C(F)(F)F)c1` (stereo not given), the Potency is reported as inconclusive: 19.3 µM [inhibitor, partial curve]. `Cc1nn2c(c1-c1cccnc1N1CCOCC1)N(CC1CCOCC1)CCC2` was tested, and the Potency was inconclusive: 25 µM [inhibitor, partial curve]. In the case of `COCCC(=O)N1CCCC(Cc2nc(C3CCOCC3)no2)C1` (stereo not given), the Potency is reported as “inactive”. In the case of `CCOc1cc2c(cn1)NCCN(Cc1ccncc1Cl)C2`, the Potency is reported as inconclusive: 39.6 µM [inhibitor, partial curve]. For `COc1ccc(Cl)cc1C(=O)N1CCN(C(=O)c2nnn3c2COC(c2ccccc2)C3)CC1` (stereo not given), the Potency was inconclusive: 30.6 µM [inhibitor, single point]. For `Cn1cccc1CN1CCn2c(nn(-c3ccc(Cl)cc3)c2=O)C1`, the Potency was inconclusive: 27.3 µM [inhibitor, single point]. With `O=C(N1CCN(c2cc(-c3ccc(Cl)cc3)[nH]n2)CC1)C1(c2ccccc2)CC1` the Potency was inconclusive: 43.2 µM [inhibitor, single point]. `O=C(NCc1ccccc1Cl)c1cc2n(n1)CC(c1ccc(Cl)cc1)OC2` (stereo not given) was tested, and the Potency was inconclusive: 34.3 µM [inhibitor, single point]. With `Cc1ccc(S(=O)(=O)N2CCC(n3cnnc3-c3ccccc3)CC2)cc1C` the Potency was inconclusive: 10.9 µM [inhibitor, partial curve]. In the case of `CC(C)c1ccc(N2C(=O)[C@@H]3C[C@@H](NC(=O)C4CCN(c5nccc(C(F)(F)F)n5)CC4)CCN3C2=O)cc1`, the Potency is reported as inconclusive: 21.7 µM [inhibitor, partial curve, poor fit]. `COc1ccc(NC(=O)N2CCCC(c3noc(COc4ccccc4)n3)C2)c(C)c1` (stereo not given) was tested, and the Potency was inconclusive: 21.7 µM [inhibitor, partial curve]. In the case of `O=C1COc2ccc(NCCc3ccccn3)nc2CN1Cc1ccc(C(F)(F)F)cc1`, the Potency is reported as inconclusive: 30.6 µM [inhibitor, single point]. `Cc1ccccc1Oc1c(CCC(=O)NCC2CC2)c(C)nn1-c1ccc(F)cc1` was tested, and the Potency was inconclusive: 17.2 µM [inhibitor, partial curve]. In the case of `O=C(N[C@H]1CCN2C(=O)c3cc(-c4ccc(F)cc4F)ccc3NC(=O)[C@H]12)c1cccs1`, the Potency is reported as inconclusive: 19.3 µM [inhibitor, partial curve]. `O=C(C1CCCC1)N1CCC(CCOc2ccc(F)cc2)C1` (stereo not given) was tested, and the Potency was inconclusive: 34.3 µM [inhibitor, single point]. For `CC1Oc2ccc(NS(=O)(=O)c3cccc(Cl)c3)cc2CN(Cc2ccccc2F)C1=O` (stereo not given), the Potency was “inactive”. `O=C(c1cccc(F)c1)N1CCN(c2cc(-c3ccc(Cl)cc3)[nH]n2)CC1` was tested, and the Potency was inconclusive: 19.3 µM [inhibitor, partial curve]. For `COc1ccc(C2Cn3nnc(C(=O)N4CCN(C(=O)c5ccc(C)cc5C)CC4)c3CO2)cc1` (stereo not given), the Potency was inconclusive: 21.7 µM [inhibitor, partial curve]. In the case of `CCc1cnc(N2CCC(COc3ccc4c(cnn4CC[S+](C)(=O)[O-])c3)CC2)nc1`, the Potency is reported as active: 9.68 µM. For `CC(CCc1ccco1)NC(=O)CN1CCCc2nc(-c3ccccc3)ncc2C1=O` (stereo not given), the Potency was inconclusive: 30.6 µM [inhibitor, single point]. With `COCCN1CCCC2(CCN(c3nc(C)nc4sccc34)C2)C1=O` (stereo not given) the Potency was inconclusive: 43.2 µM [inhibitor, single point]. `NC(=O)Cc1c[nH]c2ncc(-c3ccccc3C(F)(F)F)cc12` was tested, and the Potency was inconclusive: 31.4 µM [inhibitor, partial curve]. For `O=C(Nc1ccc(Oc2ccccc2)cc1)O[C@@H]1CO[C@H]2[C@@H]1OC[C@@H]2NS(=O)(=O)c1ccc(Cl)cc1`, the Potency was active: 12.2 µM. `O=C(NC1CCN(c2cc(-c3ccccc3)[nH]n2)CC1)c1cc(Cl)ccc1F` was tested, and the Potency was “inactive”. For `c1cncc(COc2cc3c(cn2)NCCN(Cc2ccc4[nH]ccc4c2)C3)c1`, the Potency was active: 22.2 µM. `O=C(Nc1cccc2ccccc12)O[C@@H]1CO[C@H]2[C@@H]1OC[C@@H]2NC(=O)c1cccs1` was tested, and the Potency was inconclusive: 31.4 µM [inhibitor, partial curve]. For `O=C(c1ccc2c(c1)OCO2)N1CCN(c2cc(-c3ccc(Cl)cc3)[nH]n2)CC1`, the Potency was inconclusive: 24.3 µM [inhibitor, partial curve]. For `Cc1cc(C)n(CC(=O)N[C@@H]2CN(Cc3ccccc3)C[C@H]2CN(C)C)c(=O)n1`, the Potency was “inactive”. For `CCNC[C@H]1O[C@H](Cc2cc(-c3ccc(F)cc3)on2)CC[C@@H]1O`, the Potency was “inactive”.
Also: nearly all actives have a fitted effect of over 70% in size.
Potency is read from the fitted curve at half-maximal effect.
